Numbering of substitutions follows the chain as printed. No constants are given. Whether binding was seen depends on the method and setting. For some assays here: Binding seen in cells or lysates may run through a third protein. Sequences can lack the tags named with a protein. Some binding calls cover weakened binding; strength is not graded here.

For experiment [1], the target named is T1, DppBCDF translocator (wild type) (E. coli) (UniProt P0AEF8+P0AEG1+P0AAG0+P37313).
T1 sequence 1: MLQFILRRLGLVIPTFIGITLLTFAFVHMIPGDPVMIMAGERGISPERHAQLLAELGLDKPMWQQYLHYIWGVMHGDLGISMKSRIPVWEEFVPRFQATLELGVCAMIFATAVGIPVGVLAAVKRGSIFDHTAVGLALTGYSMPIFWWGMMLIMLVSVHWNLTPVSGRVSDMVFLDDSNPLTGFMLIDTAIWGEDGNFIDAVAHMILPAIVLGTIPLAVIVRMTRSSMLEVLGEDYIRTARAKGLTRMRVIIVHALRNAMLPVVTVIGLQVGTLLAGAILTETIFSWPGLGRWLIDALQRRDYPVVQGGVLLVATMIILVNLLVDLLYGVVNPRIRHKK
T1 sequence 2: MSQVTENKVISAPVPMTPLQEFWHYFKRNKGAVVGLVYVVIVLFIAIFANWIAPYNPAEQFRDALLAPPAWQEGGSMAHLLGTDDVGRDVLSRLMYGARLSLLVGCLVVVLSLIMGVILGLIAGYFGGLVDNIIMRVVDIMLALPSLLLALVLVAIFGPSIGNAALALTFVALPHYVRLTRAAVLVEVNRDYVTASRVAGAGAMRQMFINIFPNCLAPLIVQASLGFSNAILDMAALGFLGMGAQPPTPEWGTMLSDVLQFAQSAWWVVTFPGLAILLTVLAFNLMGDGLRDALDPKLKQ
T1 sequence 3: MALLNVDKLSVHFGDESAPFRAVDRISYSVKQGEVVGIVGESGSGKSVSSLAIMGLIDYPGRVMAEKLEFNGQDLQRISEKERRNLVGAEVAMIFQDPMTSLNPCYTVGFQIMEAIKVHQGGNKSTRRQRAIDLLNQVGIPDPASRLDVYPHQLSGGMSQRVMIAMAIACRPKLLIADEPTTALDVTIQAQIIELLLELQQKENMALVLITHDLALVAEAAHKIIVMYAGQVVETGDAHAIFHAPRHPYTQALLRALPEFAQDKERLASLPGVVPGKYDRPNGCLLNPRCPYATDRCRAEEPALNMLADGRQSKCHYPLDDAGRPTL
T1 sequence 4: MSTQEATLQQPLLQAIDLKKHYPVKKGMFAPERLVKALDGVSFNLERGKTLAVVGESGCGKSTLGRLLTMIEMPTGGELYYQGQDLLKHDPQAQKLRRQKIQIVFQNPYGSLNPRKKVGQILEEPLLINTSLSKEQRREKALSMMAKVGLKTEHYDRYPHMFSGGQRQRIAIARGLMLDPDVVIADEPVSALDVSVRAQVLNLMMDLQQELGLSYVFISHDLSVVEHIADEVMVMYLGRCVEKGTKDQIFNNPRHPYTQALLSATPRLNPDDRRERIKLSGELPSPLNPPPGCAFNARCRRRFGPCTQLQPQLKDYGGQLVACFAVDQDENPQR
The experiment can be described thus: pull-down; attempt to co-purify the wild-type DppABCDF complex using tagged DppA and DppBCDF.

Experiment [2] deals with T1, DppBCDF translocator (wild type) (E. coli). The experiment can be described thus: SEC; DppA and DppBCDF purified separately, mixed and run on size-exclusion chromatography; both purified.
For a further experiment, the target named is T2, DppB (E. coli) (UniProt P0AEF8).
T2 sequence: T1 sequence 1
The experiment can be described thus: cryo-EM structure; DppA-His co-expressed and co-purified (Ni-NTA) with DppBCD(E179Q)F(E187Q), 2 mM ATPγS and 2 mM MgCl2, 30 min on ice; 2.73 Å; outward-facing; both purified.

For experiment [3], the target named is T3, DppBCD^E179QF^E187Q (E. coli) (UniProt P0AEF8+P0AEG1+P0AAG0+P37313).
T3 sequence 1: T1 sequence 1
T3 sequence 2: T1 sequence 2
T3 sequence 3: T1 sequence 3 with E179Q
T3 sequence 4: T1 sequence 4 with E187Q
The experiment is described as above.

For a further experiment, the target named is T4, DppC (E. coli) (UniProt P0AEG1).
T4 sequence: T1 sequence 2
The experiment is described as above.

B1: DppA with a His-tag fused to the C-terminus (protein, UniProt P23847 29-535)
chain: KTLVYCSEGSPEGFNPQLFTSGTTYDASSVPLYNRLVEFKIGTTEVIPGLAEKWEVSEDGKTYTFHLRKGVKWHDNKEFKPTRELNADDVVFSFDRQKNAQNPYHKVSGGSYEYFEGMGLPELISEVKKVDDNTVQFVLTRPEAPFLADLAMDFASILSKEYADAMMKAGTPEKLDLNPIGTGPFQLQQYQKDSRIRYKAFDGYWGTKPQIDTLVFSITPDASVRYAKLQKNECQVMPYPNPADIARMKQDKSINLMEMPGLNVGYLSYNVQKKPLDDVKVRQALTYAVNKDAIIKAVYQGAGVSAKNLIPPTMWGYNDDVQDYTYDPEKAKALLKEAGLEKGFSIDLWAMPVQRPYNPNARRMAEMIQADWAKVGVQAKIVTYEWGEYLKRAKDGEHQTVMMGWTGDNGDPDNFFATLFSCAASEQGSNYSKWCYKPFEDLIQPARATDDHNKRVELYKQAQVVMHDQAPALIIAHSTVFEPVRKEVKGYVVDPLGKHHFENVSIE
Take B1: the binding entry in experiment [1] is listed as “no binding”; in experiment [2], “no binding”; in the experiment with DppB (E. coli) it was “binds”; in experiment [3], “binds”; with DppC (E. coli) it was “binds”.
